Results are given in words; binding and its absence hold for the method and conditions named. Some entries that bind do so weakly or less than the wild type.
Target: Her2/neu抗原 (UniProt P04626)
Assay: phage display panning on coated antigen and phage ELISA, as in Example 2

B1: 人源化抗Her2/neu单域抗体(HerG1M) (VHH)
VHH: QVKLEESGGGLIKPGGSLRLSCAASGFRIIDEKMAWVRQAPGKGLEWVSAISSSGGSTYYADSVKGRFTISRDNSKNAVYLQMNSLRAEDTAVYYCVAVKPKCNMQNCRASVNFWGQGTQVTVSS
binding: binds
